According to US20230076977A1, “UTROPHIN UPREGULATION COMPOUNDS FOR DUCHENNE MUSCULAR DYSTROPHY THERAPY” (THE TRUSTEES OF THE UNIVERSITY OF PENNSYLVANIA, priority 2020, published 2023):
At least one structure is not confirmed: it was looked up by name or label, or the drawing left a doubt.

Tested on: CMV-driven luciferase gene
Assay: Counterscreening assay: C2C12 line stably expressing only the CMV-driven luciferase gene
Format: cell-based
Conditions: dose-response 5 nM to 10 μM, FIG. 6
Protocol: The construct for the HTS assay was generated by cloning the 5′- and 3′-UTRs of human utrophin into pGL4:50-hygro (Promega, Madison, Wis.) at the 5′ and 3′ of the luciferase coding sequence and has been described previously by Moorwood. […] For the counterscreening assay, the pGL4:50-hygro plasmid was used alone. Low passage C2C12 cells obtained from ATCC were transfected with either constructs, stably selected with 500 μg/mL hygromycin and subcloned using two rounds of serial dilutions to isolate single cell-derived colonies in a 96 wells plate format. […]
The construct for generating the screening C2C12 cell line carrying the 5′ and 3′UTR of the human utrophin gene is described by Moorwood. […] To determine optimal conditions for the implementation in a 384-wells high-throughput format, evaluated were DMSO tolerance, optimal cell density and incubation time (FIG. 5A-5C).
A first criterion for evaluating the performance of the selected hits was whether their activity was dose-dependent. […] By modeling each dose-response trace with a 4-parameter logistic model applied to the Z— score values (FIG. 2B), the EC50 of each molecule was calculated.
Cells were allowed to attach overnight at 37° C., 5% CO2 in a humidified chamber. […] Luminescence was measured on an EnVisionXcite Multilabel Plate Reader (PerkinElmer), using ultrasensitive luminescence measurement technology.

## Cc1cc(O)c(-c2ccc(C(C)CN(C)C)cc2)c2c1[nH]c(=O)c1sccc12 (stereo not shown) [OTS964]
  luciferase activity in the counterscreening assay: significant luciferase activity
